PubChem BioAssay AID602196 | INSERM – 2012
The deposit covers about 23,000 reagents; this is an unselected part. 455 of them (2%) were called active. 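Active includes both protection and sensitisation; some change values fall well beyond the stated -50 to +50 range.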 Entries without a mark were called inactive. Further read-outs or replicates are left out here. The record does not give: the amount of reagent.

Aim: 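Knock-downs that protect lung cancer cells from cisplatin or sensitise them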
Cells: human A549 lung cancer cells
Reagent: siRNA pair against human genes
Duration: 48 h transfection before cisplatin; time from cisplatin to read-out not stated
Conditions: cisplatin at a dose killing half of control-siRNA cells; exact dose and duration not given
Read-out: 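Shift in cisplatin death relative to control siRNA, from -50 (all cells die) to +50 (no cells die); siRNAs harmful on their own scored 0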
Reading the numbers: two-siRNA summed score (-2 to +2): higher = both siRNAs protect from cisplatin killing; -2 means both sensitise
Hit rule: 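siRNAs harmful alone (LDH or WST-1) get 0; others get +1 for less and -1 for more cisplatin killing; genes are active when the two siRNAs give the same sign, summing to ±2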
Meaning of the calls: active = both siRNAs shift cisplatin killing the same way; inactive = no consistent shift, or siRNA harmful alone

How did the screen score GCN1?
two-siRNA summed score (-2 to +2): 1

With LOC402577, what does the deposit list?
two-siRNA summed score (-2 to +2): 0

Which result is listed for CCSAP?
two-siRNA summed score (-2 to +2): 0

Which result is listed for MRPL54?
two-siRNA summed score (-2 to +2): 0

What is on record for NUBP2?
two-siRNA summed score (-2 to +2): -1

Which result is listed for STK3?
two-siRNA summed score (-2 to +2): -1

With MAOA, what was measured?
two-siRNA summed score (-2 to +2): 0

For LOC388681, what was measured?
two-siRNA summed score (-2 to +2): 0

With ATP2A3, what does the deposit list?
two-siRNA summed score (-2 to +2): 0

For LOC440367, how do the results read?
two-siRNA summed score (-2 to +2): 0

For HMGCL, what was measured?
two-siRNA summed score (-2 to +2): 0

How did the screen score LOC120126?
two-siRNA summed score (-2 to +2): 0

How did the screen score UBE2D1?
two-siRNA summed score (-2 to +2): 0

With RHEBL1, how do the results read?
two-siRNA summed score (-2 to +2): 0

What did the screen give for PIGA?
two-siRNA summed score (-2 to +2): 1

What is on record for LOC440862?
two-siRNA summed score (-2 to +2): 0

With AQP4-AS1, what does the deposit list?
two-siRNA summed score (-2 to +2): 0

How did the screen score RPS6KA3?
two-siRNA summed score (-2 to +2): 1

For GSTM5, what was measured?
two-siRNA summed score (-2 to +2): 0

For C9orf43, how do the results read?
two-siRNA summed score (-2 to +2): 0

For OCA2, what was measured?
two-siRNA summed score (-2 to +2): 1

How did the screen score PEX6?
two-siRNA summed score (-2 to +2): 0

For STARD9, how do the results read?
two-siRNA summed score (-2 to +2): 0

What did the screen give for LOC340211?
two-siRNA summed score (-2 to +2): 0

What did the screen give for DUSP9?
two-siRNA summed score (-2 to +2): 0

What did the screen give for VAPB?
two-siRNA summed score (-2 to +2): 0

What is on record for LOC339760 (retired record)?
two-siRNA summed score (-2 to +2): 0

What is on record for CWH43?
two-siRNA summed score (-2 to +2): 0

With PCTP, what does the deposit list?
two-siRNA summed score (-2 to +2): 0

With PRB4, what does the deposit list?
two-siRNA summed score (-2 to +2): 0

What is on record for LOC389153?
two-siRNA summed score (-2 to +2): 0

Which result is listed for MT1JP?
two-siRNA summed score (-2 to +2): 0

For TXNRD1, what does the deposit list?
two-siRNA summed score (-2 to +2): 0

For ATP5MK, what was measured?
two-siRNA summed score (-2 to +2): 0

For LOC339997, how do the results read?
two-siRNA summed score (-2 to +2): 2 (active)

What is on record for SV2B?
two-siRNA summed score (-2 to +2): 1

Which result is listed for ADAM21?
two-siRNA summed score (-2 to +2): 0

For CCL3, how do the results read?
two-siRNA summed score (-2 to +2): 0

For OR3A3, what does the deposit list?
two-siRNA summed score (-2 to +2): -1

What is on record for CLEC10A?
two-siRNA summed score (-2 to +2): 0

Reformatted: entries from further up.
target | two-siRNA summed score (-2 to +2)
ATP2A3 | 0
LOC440367 | 0
